Data from patent EP0636146B1 (A. MENARINI INDUSTRIE FARMACEUTICHE RIUNITE S.R.L., priority 1992, dated 1997).
[ ]: non-standard residue; d: D form. Dap = NC[C@H](N)C(=O)O

Columns and labels:
[1] = general procedure: Boc solid-phase peptide synthesis; Boc-Leu-OCH2-PAM resin; PyBop; symmetric anhydrides (DCC); DCC/HOBt; details: whole synthesis, 210 nm, scale 0.5 mmoles
[2] = general procedure: Boc solid-phase peptide synthesis; PyBop; symmetric anhydrides (DCC); DCC/HOBt; details: cyclisation step, 210 nm

H-MDWF[Dap]L-OH
final HPLC purity [1]: > 99%

cyclo(MDWFL)
final HPLC purity [2]: > 99%
